Reference: publication PMC7819943, “Rice protein-binding microarrays: a tool to detect cis-acting elements near promoter regions in rice”
The list shows a part of the results.

Chains of the proteins cited; added tags and fusions are not shown.
UniProt Q0JBA9, entry or part of it: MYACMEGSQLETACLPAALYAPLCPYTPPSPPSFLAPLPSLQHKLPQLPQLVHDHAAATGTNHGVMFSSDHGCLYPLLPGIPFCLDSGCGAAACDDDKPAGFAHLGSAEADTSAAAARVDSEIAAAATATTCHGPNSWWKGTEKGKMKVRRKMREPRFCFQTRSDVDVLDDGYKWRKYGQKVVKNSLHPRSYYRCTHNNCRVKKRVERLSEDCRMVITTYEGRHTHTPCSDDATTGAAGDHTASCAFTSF

These sequences were tested against OsWRKY34 (Oryza sativa, UniProt Q0JBA9 1-250) (assay: protein-binding microarray (RPBM); PBS, 2% BSA, 51.3 ng/ul salmon testes DNA, 50 uM zinc acetate, 200 nM TF, 25 C, 1 h; high values mean tight binding). Details: protein: recombinant; tags: N-terminal polyhistidine and DsRed monomer fusion (pET32a); label: CyDye5-dUTP incorporated in the synthesized complementary strand; 3' TTTTT single-stranded linker to array surface; dsDNA, one strand shown.
In short: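 An Axon 4000B scanner gave the binding signal as per-feature fluorescence intensity in arbitrary units. This followed washing of a custom Agilent array that had been incubated for 1 h at 25 °C with 200 nM protein in PBS, 2% BSA, salmon testes DNA and 50 µM zinc acetate. The proteins were transcription factors fused at the N-terminus to polyhistidine and DsRed, expressed in E. coli BL21-CodonPlus and purified on Ni–NTA.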

Sequence	binding signal
TTGGTTTTTTTCCGGTCTGACCGCCGGTCTCCTCTTTCCCCGGAGTCACCTAGTGCAG	9860 fluorescence intensity (a.u.)
CAACATTTTCCTGTGCTTTGACCAAATTATCCTGTTTATTCGGAGTCACCTAGTGCAG	14900 fluorescence intensity (a.u.)
TAAACTCGTTGGACCACTCGACTGTAATTTGTTGTTTTGTCGGAGTCACCTAGTGCAG	8740 fluorescence intensity (a.u.)
TTCTTCCATGCTATTATGACACAAAAGCACCCGTTCTTTTCGGAGTCACCTAGTGCAG	8920 fluorescence intensity (a.u.)
ATCTGTTACACTGTGGTACCATATCACCTGCAGCAATCAACGGAGTCACCTAGTGCAG	9680 fluorescence intensity (a.u.)
GGGATAGTACTTATTACTCCCTCCGTCTCGAGTTTTTTTTCGGAGTCACCTAGTGCAG	8360 fluorescence intensity (a.u.)
ATGCTCTATCCGTCCTGGGCCACTTTGCATTTGGAAACTACGGAGTCACCTAGTGCAG	11900 fluorescence intensity (a.u.)
CAAACAGAGCACACCTTTTTCCAGGACATTTGTCAATATTCGGAGTCACCTAGTGCAG	9180 fluorescence intensity (a.u.)
GGTGTCGTATGGGGTGTTCAGGCACTAATAAAAAAAAATACGGAGTCACCTAGTGCAG	11400 fluorescence intensity (a.u.)
CCTGGAAGGAGTCCCCGTTATTGCTTTGCCATGTTTCTTCCGGAGTCACCTAGTGCAG	9120 fluorescence intensity (a.u.)
ATCTAGTAGTATTTGCCACCGAATGTTTTTCTGGGATGCTCGGAGTCACCTAGTGCAG	8330 fluorescence intensity (a.u.)
AAAATCTCCATCCCAGCCACCTCACAACAAGATCCTCAACCGGAGTCACCTAGTGCAG	9550 fluorescence intensity (a.u.)
GAGAAAAGCAGCCACAGATAATGACTAAACTTGCACATCTCGGAGTCACCTAGTGCAG	8200 fluorescence intensity (a.u.)
TCCCGTCTCGTCCGTCGTCTCCTCCGCTCCTTGCGCCAAGCGGAGTCACCTAGTGCAG	10200 fluorescence intensity (a.u.)
TACCGGTAAATATTCGCTACCGTATTTGTTCCATCTCGTACGGAGTCACCTAGTGCAG	8540 fluorescence intensity (a.u.)
CAGTTTGGTTGTTCATTGGTTGGTTCGTGTATCTGACGAACGGAGTCACCTAGTGCAG	13100 fluorescence intensity (a.u.)
ACCTGTAGTTGCCAATCAAACATGTCTTACGGCCTGTTTGCGGAGTCACCTAGTGCAG	8300 fluorescence intensity (a.u.)
CTGCATACCGAGACGTTATTCCAAGCTCGCATTGAACTGCCGGAGTCACCTAGTGCAG	8910 fluorescence intensity (a.u.)
GTCGCGCTATATATACCCCTCACTCGCTGCGATTTTACAGCGGAGTCACCTAGTGCAG	8400 fluorescence intensity (a.u.)
TTTGTTTGCAGCTGCTCTCTTGTCCTTCTTCTTCGCTATTCGGAGTCACCTAGTGCAG	11500 fluorescence intensity (a.u.)
AGTTCCTCATCAAATCACTTGATAAATGTATAATTCCTTTCGGAGTCACCTAGTGCAG	8300 fluorescence intensity (a.u.)

Looked up one by one from above:
Sequence	binding signal
GTCGCGCTATATATACCCCTCACTCGCTGCGATTTTACAGCGGAGTCACCTAGTGCAG	8400 fluorescence intensity (a.u.)
ACCTGTAGTTGCCAATCAAACATGTCTTACGGCCTGTTTGCGGAGTCACCTAGTGCAG	8300 fluorescence intensity (a.u.)
CAGTTTGGTTGTTCATTGGTTGGTTCGTGTATCTGACGAACGGAGTCACCTAGTGCAG	13100 fluorescence intensity (a.u.)

Next part

Sequence	binding signal
TCCATCAGTTTTGTGAACTCTGTCTGTCACTCGCTCAGCACGGAGTCACCTAGTGCAG	8940 fluorescence intensity (a.u.)
TCAATTCCGTTTCTTGGTTCGTCGCAGAAGCCTCAAGCTCCGGAGTCACCTAGTGCAG	8330 fluorescence intensity (a.u.)
CCGCCGCCGCCTTGTCGCCCGCCGCCTACTCTCTCGCCTCCGGAGTCACCTAGTGCAG	8080 fluorescence intensity (a.u.)
ACTCAGTTTCGTGCATGGATCTTACGAAGGTCAGGGGAGGCGGAGTCACCTAGTGCAG	8380 fluorescence intensity (a.u.)
GTATTTTCATCTGTTTGTTCGACACGGTTGAGTGCACGACCGGAGTCACCTAGTGCAG	8120 fluorescence intensity (a.u.)
CGGCTCGACCCGATGCTGTGGATTTCCGTTGCTACTATACCGGAGTCACCTAGTGCAG	8400 fluorescence intensity (a.u.)
GACATAAGTTTATTATCTATATCCATAGTACGTTTAATCCCGGAGTCACCTAGTGCAG	10100 fluorescence intensity (a.u.)
ACCACTGATTCGCCCTGTTTACAGCAAGTTGCTCTGTGTTCGGAGTCACCTAGTGCAG	10500 fluorescence intensity (a.u.)
CCAAGTGTAGCCGTAGATATCTGTGTCCAACATTTGACCACGGAGTCACCTAGTGCAG	8220 fluorescence intensity (a.u.)
TATTTGCGCCGATTCGTTTTTGTTCCGTTTTCGGTTTTGACGGAGTCACCTAGTGCAG	12800 fluorescence intensity (a.u.)
AATCTATTAAAAAAATTAGGGGTGGGTAGATATGTTATACCGGAGTCACCTAGTGCAG	11400 fluorescence intensity (a.u.)
AAGCCCAACGTGCTTCATCTCTTCTTCTATCTTATCTTCTCGGAGTCACCTAGTGCAG	8190 fluorescence intensity (a.u.)
ATTGTATTTCGATGAAATCCGTGTTTATGCGATTATATGACGGAGTCACCTAGTGCAG	8210 fluorescence intensity (a.u.)
CCTCGCCTCACCTTCAAATACGAGCTGCCTCCACTGCCTCCGGAGTCACCTAGTGCAG	9050 fluorescence intensity (a.u.)
CTTTCGTTTCTTTTTTTTTTGCCCCTCGTTTTGCGTTTTCCGGAGTCACCTAGTGCAG	10900 fluorescence intensity (a.u.)
GATTGGATAGTGTGATTTTTCGCCTCGGCATTTGGTGGGCCGGAGTCACCTAGTGCAG	8040 fluorescence intensity (a.u.)
TCCTTCCCACTCCCACCACCACCACTGCCTCTTCCTCTTCCGGAGTCACCTAGTGCAG	10600 fluorescence intensity (a.u.)
TTTTTGTTTTTGTTTGCCTTTGATCTTTGCAAGAAGTTACCGGAGTCACCTAGTGCAG	8920 fluorescence intensity (a.u.)
GTCCAACCCCTGCTTTCCTGCCTGTCCATACCGATCATGGCGGAGTCACCTAGTGCAG	9060 fluorescence intensity (a.u.)
GCTCTTCATCTTGTTGCTTCTTCCCTCTTTGAATTTCATTCGGAGTCACCTAGTGCAG	8950 fluorescence intensity (a.u.)
ACGGTTTTATCTTGTCACTCGGGTGTTGCTAGGGCACGATCGGAGTCACCTAGTGCAG	8440 fluorescence intensity (a.u.)
